Results are given in words; binding and its absence hold for the method and conditions named. For part of these data: Binding seen in cells or lysates may run through a third protein. Some binding calls cover weakened binding; strength is not graded here.
Tests used:
[1] = biological target: endogenous p27 in breast cell lysates (human) (UniProt P46527); assay: reciprocal co-immunoprecipitation from breast cell lysates (Brk IP / p27 blot, p27 IP / Brk blot)
[2] = biological target: recombinant His-cyclin D1-cdk4 complex (UniProt P24385); assay: incubation of recombinant proteins, cdk4 immunoprecipitation
[3] = biological target: recombinant His-p27 (full-length p27Kip1, C-terminal histidine tag) (human) (UniProt P46527); assay: His pull-down (metal agarose chromatography), GST immunoblot
[4] = biological target: recombinant His-p27 (full-length p27Kip1, C-terminal histidine tag) (human) (UniProt P46527); assay: His pull-down (metal agarose chromatography), GST immunoblot, without ATP
[5] = biological target: His-p27 mutant ΔK1/K3 (PPPP91,92,94,95AAAA and PKKP188,189,190,191AAAA) (human) (UniProt P46527); assay: as above
[6] = biological target: recombinant His-p27 (full-length p27Kip1, C-terminal histidine tag) (human) (UniProt P46527); assay: His pull-down, summary of FIG. 3
[7] = biological target: recombinant His-p27 (full-length p27Kip1, C-terminal histidine tag) (human) (UniProt P46527); assay: phage-ELISA on His-p27
[8] = biological target: GST (GST domain expressed in the absence of any p27 or Brk sequence) [GST: P08515]; assay: phage-ELISA on immobilised GST

Amino acid sequences for entries named in this document (tags omitted). Chains listed by the source or under a name are the forms on record and can include a tag or linker. Residues count along the entry.
GST-Brk SH2 (recombinant GST-tagged SH2 domain of Brk) (Q13882, residues 78-170): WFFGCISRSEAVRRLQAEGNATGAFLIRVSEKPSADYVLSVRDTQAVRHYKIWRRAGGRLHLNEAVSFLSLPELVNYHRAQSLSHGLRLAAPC
UniProt P42685, residues 42-110: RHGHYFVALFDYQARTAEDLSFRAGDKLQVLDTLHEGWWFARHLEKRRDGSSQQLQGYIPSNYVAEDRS

endogenous Brk in breast cell lysates (MCF7, MDA MB 231, MCF10A) (from UniProt Q13882 1-451) (enzyme)
binding [1]: binds

recombinant His-p27 (full-length p27Kip1, C-terminal histidine tag) (from UniProt P46527 1-198)
binding [2]: binds

GST-Brk (full length GST-PTK6/Brk, SignalChem) (from UniProt Q13882 1-451) (enzyme)
binding [3]: binds

GST-Brk SH2 (recombinant GST-tagged SH2 domain of Brk) (from UniProt Q13882 78-170)
binding [4]: binds | binding [5]: binds | binding [6]: binds

SH3 domain of Frk displayed on phage (from UniProt P42685 42-110)
binding [7]: binds | binding [8]: binds

His-p27 mutant Y74F (from UniProt P46527 1-198)
binding [2]: binds

His-p27 mutant Y88F (from UniProt P46527 1-198)
binding [2]: binds

His-p27 mutant ΔK1 (PPPP91,92,94,95AAAA) (from UniProt P46527 1-198)
binding [2]: binds

His-p27 mutant ΔK1/K3 (PPPP91,92,94,95AAAA and PKKP188,189,190,191AAAA) (from UniProt P46527 1-198)
binding [2]: binds

Reference: patent publication US20170065662A1
